Binding data for 2 molecules are collected here from patent publication US20030157712A1, “Methods for determining cell responses through EphB receptors” (priority 1997, published 2003).

Sequences of proteins named here, by UniProt entry; tags and fusion partners are left off. Residues count along the entry.
UniProt Q8CBF3, residues 18-984: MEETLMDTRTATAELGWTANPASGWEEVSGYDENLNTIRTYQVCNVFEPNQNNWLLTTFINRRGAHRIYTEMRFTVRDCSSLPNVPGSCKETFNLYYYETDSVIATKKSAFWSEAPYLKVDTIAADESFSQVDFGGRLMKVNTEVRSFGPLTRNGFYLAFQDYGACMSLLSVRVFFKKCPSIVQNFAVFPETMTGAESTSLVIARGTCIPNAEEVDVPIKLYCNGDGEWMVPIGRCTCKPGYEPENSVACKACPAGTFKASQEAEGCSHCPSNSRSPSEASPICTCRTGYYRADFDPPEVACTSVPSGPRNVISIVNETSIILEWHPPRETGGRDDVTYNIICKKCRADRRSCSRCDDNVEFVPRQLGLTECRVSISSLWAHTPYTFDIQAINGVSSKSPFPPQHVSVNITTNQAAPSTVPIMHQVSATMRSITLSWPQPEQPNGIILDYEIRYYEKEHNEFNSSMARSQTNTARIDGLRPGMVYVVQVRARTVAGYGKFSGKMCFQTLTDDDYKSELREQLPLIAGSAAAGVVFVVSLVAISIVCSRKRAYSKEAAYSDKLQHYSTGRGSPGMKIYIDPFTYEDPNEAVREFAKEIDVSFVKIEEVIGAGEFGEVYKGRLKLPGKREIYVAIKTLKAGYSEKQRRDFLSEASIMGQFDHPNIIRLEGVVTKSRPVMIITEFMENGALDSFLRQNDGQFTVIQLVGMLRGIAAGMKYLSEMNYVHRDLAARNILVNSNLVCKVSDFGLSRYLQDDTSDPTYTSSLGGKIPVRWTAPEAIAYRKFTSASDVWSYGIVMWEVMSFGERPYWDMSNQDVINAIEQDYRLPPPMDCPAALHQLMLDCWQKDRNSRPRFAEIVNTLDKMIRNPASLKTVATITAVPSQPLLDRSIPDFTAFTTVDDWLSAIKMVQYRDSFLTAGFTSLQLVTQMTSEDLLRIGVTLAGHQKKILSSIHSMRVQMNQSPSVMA
UniProt P54762, residues 18-984: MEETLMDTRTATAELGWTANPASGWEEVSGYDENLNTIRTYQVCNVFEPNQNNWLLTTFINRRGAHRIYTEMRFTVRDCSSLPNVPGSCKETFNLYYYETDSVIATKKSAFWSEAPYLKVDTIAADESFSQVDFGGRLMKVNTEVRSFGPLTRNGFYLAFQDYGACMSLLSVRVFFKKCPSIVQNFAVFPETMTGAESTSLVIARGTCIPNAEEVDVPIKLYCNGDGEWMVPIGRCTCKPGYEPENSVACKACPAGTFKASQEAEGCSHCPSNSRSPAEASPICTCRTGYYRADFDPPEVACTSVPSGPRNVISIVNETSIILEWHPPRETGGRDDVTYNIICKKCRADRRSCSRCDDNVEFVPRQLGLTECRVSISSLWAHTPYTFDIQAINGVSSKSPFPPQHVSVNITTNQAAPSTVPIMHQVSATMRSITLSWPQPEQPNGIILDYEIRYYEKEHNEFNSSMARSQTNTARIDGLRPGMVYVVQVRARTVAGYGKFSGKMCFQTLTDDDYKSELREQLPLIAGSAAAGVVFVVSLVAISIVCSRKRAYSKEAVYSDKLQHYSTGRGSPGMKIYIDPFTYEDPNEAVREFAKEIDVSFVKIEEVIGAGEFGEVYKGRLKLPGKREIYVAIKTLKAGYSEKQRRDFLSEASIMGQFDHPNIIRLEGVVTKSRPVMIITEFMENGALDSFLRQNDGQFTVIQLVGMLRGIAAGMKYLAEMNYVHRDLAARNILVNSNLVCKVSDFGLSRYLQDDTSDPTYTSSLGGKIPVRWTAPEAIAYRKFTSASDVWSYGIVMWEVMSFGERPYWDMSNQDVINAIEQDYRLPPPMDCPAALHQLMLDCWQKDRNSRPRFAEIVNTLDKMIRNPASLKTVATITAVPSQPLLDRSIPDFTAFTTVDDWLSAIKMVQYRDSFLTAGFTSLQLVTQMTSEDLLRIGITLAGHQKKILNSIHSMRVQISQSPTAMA

The target in test [1] is endogenous EphB1 receptor of P19 cells (teratocarcinoma-derived, pluripotent murine cells) (murine) (UniProt Q8CBF3). The experiment in a line: P19 cell attachment to nitrocellulose surfaces preadsorbed with ephrin-B1/Fc and fibronectin.
Test [2] addresses hEphB1/HA (wild-type human EphB1, HA epitope tagged, expressed from pSRα in P19 or HEK293 cells) (human) (UniProt P54762). The experiment in a line: anti-HA immunoprecipitation from transfected P19 cells stimulated with multimeric ephrin-B1/Fc, immunoblot. On the technique in general: A western blot detects proteins with antibodies after separation by electrophoresis.

These are yes or no findings as the source states them, for the method shown. Some binding calls cover weakened binding; strength is not graded here. For some assays here: Where a sequence is shown, tags or fusion partners need not be part of it.

B1: ephrin-B1/Fc dimer (disulfide-linked immunoglobulin Fc fusion form of ephrin-B1) (Fc fusion, UniProt P98172 28-237, looked up, not shown: a dimerising Fc or GST)
chain: LAKNLEPVSWSSLNPKFLSGKGLVIYPKIGDKLDIICPRAEAGRPYEYYKLYLVRPEQAAACSTVLDPNVLVTCNRPEQEIRFTIKFQEFSPNYMGLEFKKHHDYYITSTSNGSLEGLENREGGVCRTRTMKIIMKVGQDPNAVTPEQLTTSRPSKEADNTVKMATQAPGSRGSLGDSDGKHETVNQEEKSGPGASGGSSGDPDGFFNSK
Turning to B1, the binding result in test [1] was “binds”.

B2: endogenous LMW-PTP of P19 cells (enzyme, murine, UniProt Q9D358 2-158, looked up)
chain: AEVGSKSVLFVCLGNICRSPIAEAVFRKLVTDEKVSDNWRIDSAATSTYEVGNPPDYRGQNCMRKHGIHMQHIARQITKEDFATFDYILCMDESNLRDLNRKSNQVKNCKAKIELLGSYDPQKQLIIEDPYYGNDSDFEVVYQQCLRCCKAFLEKTY
Take B2: the binding entry in test [2] is recorded as “binds”.
